Experimental data: PubChem BioAssay AID652243 (Drosophila RNAi Screening Center, 2013)
The deposit covers about 24,000 reagents; shown is a random part of those that have a named target and a result. Over the whole deposit, 246 (1%) are marked active. 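Plates not normalised; calls are printed but the firefly/Renilla ratio behind them is not deposited; fold cut for lowering reported inconsistently.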 Raw values are not corrected between plates. Not stated in the record: the amount of reagent.

Assay: 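Fly regulators of androgen-dependent reporter output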 (primary screen)
System: Drosophila S2R+ cells
Knock-down reagent: long dsRNA against Drosophila genes
Time to read-out: 72 h (48 h, then 24 h hormone)
Challenge: synthetic androgen R1881 at 10 nM for 24 h
Measurement: 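Firefly light from an androgen-responsive reporter and Renilla control light per well, raw and unnormalised, for each of two replicates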
Scale: firefly reporter light: higher = more light from androgen-responsive reporter; Renilla control light: higher = more constitutive control signal (cell number, transfection)
Hit rule: 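Across duplicate plates, a knock-down whose log firefly/Renilla ratio shifted a set fold down or up from the GFP/LacZ control mean was a hit; the downward cut appears as both 1.5 and 3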
Meaning of the calls: active = hit: reporter lowered or raised; inactive = no hit

Pten (GeneID 43991) [DRSC03402]
- firefly reporter light, replicate 1: 1.74e5
- firefly reporter light, replicate 2: 1.95e5
- Renilla control light, replicate 1: 1.22e6
- Renilla control light, replicate 2: 1.39e6
- Outcome: inactive

Pten (GeneID 43991) [DRSC29950]
- firefly reporter light, replicate 1: 1.16e6
- firefly reporter light, replicate 2: 8.46e5
- Renilla control light, replicate 1: 1.72e6
- Renilla control light, replicate 2: 2.04e6
- Outcome: inactive

klhl10 (GeneID 3354863) [DRSC37921]
- firefly reporter light, replicate 1: 8.18e5
- firefly reporter light, replicate 2: 7.84e5
- Renilla control light, replicate 1: 1.55e6
- Renilla control light, replicate 2: 1.45e6
- Outcome: inactive

klhl10 (GeneID 3354863) [DRSC38784]
- firefly reporter light, replicate 1: 8.40e5
- firefly reporter light, replicate 2: 9.93e5
- Renilla control light, replicate 1: 1.47e6
- Renilla control light, replicate 2: 1.97e6
- Outcome: inactive

CG33523 (GeneID 38668) [DRSC09814]
- firefly reporter light, replicate 1: 1.73e5
- firefly reporter light, replicate 2: 1.55e5
- Renilla control light, replicate 1: 2.52e6
- Renilla control light, replicate 2: 2.03e6
- Outcome: inactive

CG33523 (GeneID 38668) [DRSC22155]
- firefly reporter light, replicate 1: 8.50e5
- firefly reporter light, replicate 2: 9.48e5
- Renilla control light, replicate 1: 2.84e6
- Renilla control light, replicate 2: 1.94e6
- Outcome: inactive

nmd (GeneID 44021) [DRSC02856]
- firefly reporter light, replicate 1: 9.10e5
- firefly reporter light, replicate 2: 4.13e5
- Renilla control light, replicate 1: 1.45e6
- Renilla control light, replicate 2: 1.05e6
- Outcome: inactive

nmd (GeneID 44021) [DRSC27985]
- firefly reporter light, replicate 1: 5.84e5
- firefly reporter light, replicate 2: 4.63e5
- Renilla control light, replicate 1: 2.08e6
- Renilla control light, replicate 2: 1.55e6
- Outcome: inactive

L (GeneID 36609) [DRSC06666]
- firefly reporter light, replicate 1: 37749
- firefly reporter light, replicate 2: 54848
- Renilla control light, replicate 1: 1.24e6
- Renilla control light, replicate 2: 1.24e6
- Outcome: inactive

L (GeneID 36609) [DRSC06668]
- firefly reporter light, replicate 1: 54641
- firefly reporter light, replicate 2: 45565
- Renilla control light, replicate 1: 7.70e5
- Renilla control light, replicate 2: 7.70e5
- Outcome: inactive

L (GeneID 36609) [DRSC29770]
- firefly reporter light, replicate 1: 4.58e5
- firefly reporter light, replicate 2: 3.35e5
- Renilla control light, replicate 1: 1.56e6
- Renilla control light, replicate 2: 1.88e6
- Outcome: inactive

Next part; the last 2 above are carried over.
L (GeneID 36609) [DRSC06668]
- firefly reporter light, replicate 1: 54641
- firefly reporter light, replicate 2: 45565
- Renilla control light, replicate 1: 7.70e5
- Renilla control light, replicate 2: 7.70e5
- Outcome: inactive

L (GeneID 36609) [DRSC29770]
- firefly reporter light, replicate 1: 4.58e5
- firefly reporter light, replicate 2: 3.35e5
- Renilla control light, replicate 1: 1.56e6
- Renilla control light, replicate 2: 1.88e6
- Outcome: inactive

chn (GeneID 36678) [DRSC06086]
- firefly reporter light, replicate 1: 1.42e6
- firefly reporter light, replicate 2: 1.21e6
- Renilla control light, replicate 1: 2.58e6
- Renilla control light, replicate 2: 1.94e6
- Outcome: inactive

chn (GeneID 36678) [DRSC29342]
- firefly reporter light, replicate 1: 2.46e5
- firefly reporter light, replicate 2: 4.43e5
- Renilla control light, replicate 1: 8.88e5
- Renilla control light, replicate 2: 8.88e5
- Outcome: inactive

AcCoAS (GeneID 40348) [DRSC11477]
- firefly reporter light, replicate 1: 7.13e5
- firefly reporter light, replicate 2: 5.70e5
- Renilla control light, replicate 1: 3.27e6
- Renilla control light, replicate 2: 2.46e6
- Outcome: inactive

AcCoAS (GeneID 40348) [DRSC11603]
- firefly reporter light, replicate 1: 83036
- firefly reporter light, replicate 2: 80643
- Renilla control light, replicate 1: 6.64e5
- Renilla control light, replicate 2: 6.11e5
- Outcome: inactive

AcCoAS (GeneID 40348) [DRSC22850]
- firefly reporter light, replicate 1: 4.24e5
- firefly reporter light, replicate 2: 7.29e5
- Renilla control light, replicate 1: 6.24e5
- Renilla control light, replicate 2: 1.09e6
- Outcome: inactive

AcCoAS (GeneID 40348) [DRSC25972]
- firefly reporter light, replicate 1: 4.00e5
- firefly reporter light, replicate 2: 2.71e5
- Renilla control light, replicate 1: 6.77e5
- Renilla control light, replicate 2: 5.57e5
- Outcome: inactive

CG33710 (GeneID 3772611) [DRSC37842]
- firefly reporter light, replicate 1: 8.40e5
- firefly reporter light, replicate 2: 8.39e5
- Renilla control light, replicate 1: 1.64e6
- Renilla control light, replicate 2: 1.33e6
- Outcome: inactive

cysu (GeneID 42100) [DRSC15902]
- firefly reporter light, replicate 1: 66327
- firefly reporter light, replicate 2: 62858
- Renilla control light, replicate 1: 2.07e6
- Renilla control light, replicate 2: 1.16e6
- Outcome: inactive

cysu (GeneID 42100) [DRSC28838]
- firefly reporter light, replicate 1: 1.01e6
- firefly reporter light, replicate 2: 1.06e6
- Renilla control light, replicate 1: 3.26e5
- Renilla control light, replicate 2: 2.51e5
- Outcome: inactive

cysu (GeneID 42100) [DRSC39069]
- firefly reporter light, replicate 1: 9.54e5
- firefly reporter light, replicate 2: 9.36e5
- Renilla control light, replicate 1: 2.10e6
- Renilla control light, replicate 2: 1.94e6
- Outcome: inactive
